According to the supplement of paper PMC8728848:
Some of the results follow.

Experiments:
Assay in all cases: glycan array binding signal (z-score within array); higher = stronger binding
Details in all cases: glycan notation: IUPAC condensed, linker removed
Glc(a1-6)Glc(a1-6)Glc = target: Glc(a1-6)Glc(a1-6)Glc
How it was run: (§1)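 Negative Z-scores can be read as non-binding. The Z-score is calculated within each array and then averaged across arrays of one protein sequence at different concentrations or buffers and across linkers. Arrays, 3228 in all, were curated from the Consortium for Functional Glycomics database and kept only where the protein sequence was available.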

Glc(b1-4)Glc = target: Glc(b1-4)Glc
How it was run: as §1

Glc(b1-6)Glc = target: Glc(b1-6)Glc
How it was run: as §1

GlcA(b1-3)Gal = target: GlcA(b1-3)Gal
How it was run: as §1

GlcA(b1-3)GlcNAc = target: GlcA(b1-3)GlcNAc
How it was run: as §1

GlcA(b1-6)Gal = target: GlcA(b1-6)Gal
How it was run: as §1

[1] = target: GlcNAc(a1-3)Gal(b1-4)GlcNAc
How it was run: as §1

[2] = target: GlcNAc(a1-4)Gal(b1-3)GlcNAc
How it was run: as §1

[3] = target: GlcNAc(a1-4)Gal(b1-4)GalNAc
How it was run: as §1

[4] = target: GlcNAc(a1-4)Gal(b1-4)GlcNAc
How it was run: as §1

[5] = target: GlcNAc(a1-4)Gal(b1-4)GlcNAc(b1-3)Gal(b1-4)Glc
How it was run: as §1

[6] = target: GlcNAc(a1-4)Gal(b1-4)GlcNAc(b1-3)Gal(b1-4)GlcNAc
How it was run: as §1

[7] = target: GlcNAc(a1-4)Gal(b1-4)GlcNAc(b1-3)Gal(b1-4)GlcNAc(b1-3)Gal(b1-4)GlcNAc
How it was run: as §1

[8] = target: GlcNAc(a1-4)Gal(b1-4)GlcNAc(b1-3)Gal(b1-4)[Fuc(a1-3)]GlcNAc(b1-3)Gal(b1-4)[Fuc(a1-3)]GlcNAc
How it was run: as §1

[9] = target: GlcNAc(a1-6)Gal(b1-4)GlcNAc
How it was run: as §1

[10] = target: GlcNAc(b1-2)Gal(b1-3)GalNAc
How it was run: as §1

[11] = target: GlcNAc(b1-2)Man(a1-3)[GlcNAc(b1-2)Man(a1-6)]Man(b1-4)GlcNAc(b1-4)GlcNAc
How it was run: as §1

[12] = target: GlcNAc(b1-2)Man(a1-3)[GlcNAc(b1-2)Man(a1-6)]Man(b1-4)GlcNAc(b1-4)[Fuc(a1-6)]GlcNAc
How it was run: as §1

[13] = target: GlcNAc(b1-2)[GlcNAc(b1-4)]Man(a1-3)[GlcNAc(b1-2)Man(a1-6)]Man(b1-4)GlcNAc(b1-4)GlcNAc
How it was run: as §1

GlcNAc(b1-3)Gal = target: GlcNAc(b1-3)Gal
How it was run: as §1

[14] = target: GlcNAc(b1-3)Gal(b1-3)GalNAc
How it was run: as §1

GlcNAc(b1-3)Gal(b1-4)Glc = target: GlcNAc(b1-3)Gal(b1-4)Glc
How it was run: as §1

[15] = target: GlcNAc(b1-3)Gal(b1-4)GlcNAc
How it was run: as §1

[16] = target: GlcNAc(b1-3)Gal(b1-4)GlcNAc(b1-3)Gal(b1-4)GlcNAc
How it was run: as §1

GlcNAc(b1-3)GalNAc = target: GlcNAc(b1-3)GalNAc
How it was run: as §1

GlcNAc(b1-3)Man = target: GlcNAc(b1-3)Man
How it was run: as §1

[17] = target: GlcNAc(b1-3)[GlcNAc(b1-4)][GlcNAc(b1-6)]GlcNAc
How it was run: as §1

[18] = target: GlcNAc(b1-3)[GlcNAc(b1-6)]Gal(b1-4)GlcNAc
How it was run: as §1

[19] = target: GlcNAc(b1-3)[GlcNAc(b1-6)]GalNAc
How it was run: as §1

[20] = target: GlcNAc(b1-4)Gal(b1-4)GlcNAc
How it was run: as §1

GlcNAc(b1-4)GlcNAc = target: GlcNAc(b1-4)GlcNAc
How it was run: as §1

[21] = target: GlcNAc(b1-4)GlcNAc(b1-4)GlcNAc
How it was run: as §1

[22] = target: GlcNAc(b1-4)GlcNAc(b1-4)GlcNAc(b1-4)GlcNAc(b1-4)GlcNAc
How it was run: as §1

[23] = target: GlcNAc(b1-4)GlcNAc(b1-4)GlcNAc(b1-4)GlcNAc(b1-4)GlcNAc(b1-4)GlcNAc
How it was run: as §1

[24] = target: GlcNAc(b1-4)[GlcNAc(b1-6)]GalNAc
How it was run: as §1

[25] = target: GlcNAc(b1-6)Gal(b1-4)GlcNAc
How it was run: as §1

GlcNAc(b1-6)GalNAc = target: GlcNAc(b1-6)GalNAc
How it was run: as §1

GlcNAc3Prop(b1-4)GlcNAc = target: GlcNAc3Prop(b1-4)GlcNAc
How it was run: as §1

B1: PEB3 (Campylobacter jejuni), Q0PBL7 (protein)
chain: MKKIITLFGACALAFSMANADVNLYGPGGPHTALKDIANKYSEKTGVKVNVNFGPQATWFEKAKKDADILFGASDQSALAIASDFGKDFNVSKIKPLYFREAIILTQKGNPLKIKGLKDLANKKVRIVVPEGAGKSNTSGTGVWEDMIGRTQDIKTIQNFRNNIVAFVPNSGSARKLFAQDQADAWITWIDWSKSNPDIGTAVAIEKDLVVYRTFNVIAKEGASKETQDFIAYLSSKEAKEIFKKYGWRE
Q: How did the “glycan array binding signal (z-score)” value (Glc(a1-6)Glc(a1-6)Glc) turn out when B1 was run?
A: 0.502

Q: What about the “glycan array binding signal (z-score)” value (Glc(b1-4)Glc) of the same binder?
A: -0.218

Q: What about the “glycan array binding signal (z-score)” value (Glc(b1-6)Glc) of the same binder?
A: 0.346

Q: And the “glycan array binding signal (z-score)” value (GlcA(b1-3)Gal)?
A: 0.058

Q: And the “glycan array binding signal (z-score)” value (GlcA(b1-3)GlcNAc)?
A: -0.727

Q: And the “glycan array binding signal (z-score)” value (GlcA(b1-6)Gal)?
A: -0.725

Q: What about the “glycan array binding signal (z-score)” value [1] of the same binder?
A: 0.046

Q: And the “glycan array binding signal (z-score)” value [2]?
A: 0.414

Q: What about the “glycan array binding signal (z-score)” value [3] of the same binder?
A: 0.489

Q: And the “glycan array binding signal (z-score)” value [4]?
A: 0.438

Q: What about the “glycan array binding signal (z-score)” value [5] of the same binder?
A: -0.257

Q: And the “glycan array binding signal (z-score)” value [6]?
A: -0.373

Q: What about the “glycan array binding signal (z-score)” value [7] of the same binder?
A: -1.06

Q: And the “glycan array binding signal (z-score)” value [8]?
A: 3.7

Q: What about the “glycan array binding signal (z-score)” value [9] of the same binder?
A: -0.037

Q: What about the “glycan array binding signal (z-score)” value [10] of the same binder?
A: -0.834

Q: What about the “glycan array binding signal (z-score)” value [11] of the same binder?
A: 0.259

Q: And the “glycan array binding signal (z-score)” value [12]?
A: 1.7

Q: And the “glycan array binding signal (z-score)” value [13]?
A: 0.825

Q: What about the “glycan array binding signal (z-score)” value (GlcNAc(b1-3)Gal) of the same binder?
A: -0.223

Q: And the “glycan array binding signal (z-score)” value [14]?
A: 2.96

Q: What about the “glycan array binding signal (z-score)” value (GlcNAc(b1-3)Gal(b1-4)Glc) of the same binder?
A: -1.09

Q: And the “glycan array binding signal (z-score)” value [15]?
A: -1.25

Q: And the “glycan array binding signal (z-score)” value [16]?
A: -1.89

Q: What about the “glycan array binding signal (z-score)” value (GlcNAc(b1-3)GalNAc) of the same binder?
A: -0.715

Q: And the “glycan array binding signal (z-score)” value (GlcNAc(b1-3)Man)?
A: -1.1

Q: What about the “glycan array binding signal (z-score)” value [17] of the same binder?
A: 1.35

Q: And the “glycan array binding signal (z-score)” value [18]?
A: -0.395

Q: And the “glycan array binding signal (z-score)” value [19]?
A: -0.337

Q: What about the “glycan array binding signal (z-score)” value [20] of the same binder?
A: -1.18

Q: And the “glycan array binding signal (z-score)” value (GlcNAc(b1-4)GlcNAc)?
A: 0.361

Q: And the “glycan array binding signal (z-score)” value [21]?
A: 0.412

Q: And the “glycan array binding signal (z-score)” value [22]?
A: -1.17

Q: And the “glycan array binding signal (z-score)” value [23]?
A: 0.111

Q: What about the “glycan array binding signal (z-score)” value [24] of the same binder?
A: -0.607

Q: And the “glycan array binding signal (z-score)” value [25]?
A: -0.56

Q: And the “glycan array binding signal (z-score)” value (GlcNAc(b1-6)GalNAc)?
A: -0.38

Q: What about the “glycan array binding signal (z-score)” value (GlcNAc3Prop(b1-4)GlcNAc) of the same binder?
A: 0.009
